The supplement of paper PMC12819154, “High-throughput peptide-centric local stability assay extends protein–ligand identification to membrane proteins, tissues and bacteria” (Nature Structural & Molecular Biology, 2025)
The list shows a part of the results. Small differences around the control level are noise.

The chains behind the UniProt entries cited, without tags or fusion partners. Where a name states a change or a piece, a line headed by the entry shows the natural chain unless it says otherwise.
UniProt Q60931: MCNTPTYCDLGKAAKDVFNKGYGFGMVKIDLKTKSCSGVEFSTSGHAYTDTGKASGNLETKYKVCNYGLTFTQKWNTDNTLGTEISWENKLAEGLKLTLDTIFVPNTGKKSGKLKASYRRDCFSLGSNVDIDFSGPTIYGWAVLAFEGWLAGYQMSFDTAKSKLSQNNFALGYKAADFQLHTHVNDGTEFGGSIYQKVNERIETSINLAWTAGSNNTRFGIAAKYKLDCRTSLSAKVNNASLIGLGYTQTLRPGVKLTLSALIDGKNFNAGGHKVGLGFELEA
UniProt Q60841: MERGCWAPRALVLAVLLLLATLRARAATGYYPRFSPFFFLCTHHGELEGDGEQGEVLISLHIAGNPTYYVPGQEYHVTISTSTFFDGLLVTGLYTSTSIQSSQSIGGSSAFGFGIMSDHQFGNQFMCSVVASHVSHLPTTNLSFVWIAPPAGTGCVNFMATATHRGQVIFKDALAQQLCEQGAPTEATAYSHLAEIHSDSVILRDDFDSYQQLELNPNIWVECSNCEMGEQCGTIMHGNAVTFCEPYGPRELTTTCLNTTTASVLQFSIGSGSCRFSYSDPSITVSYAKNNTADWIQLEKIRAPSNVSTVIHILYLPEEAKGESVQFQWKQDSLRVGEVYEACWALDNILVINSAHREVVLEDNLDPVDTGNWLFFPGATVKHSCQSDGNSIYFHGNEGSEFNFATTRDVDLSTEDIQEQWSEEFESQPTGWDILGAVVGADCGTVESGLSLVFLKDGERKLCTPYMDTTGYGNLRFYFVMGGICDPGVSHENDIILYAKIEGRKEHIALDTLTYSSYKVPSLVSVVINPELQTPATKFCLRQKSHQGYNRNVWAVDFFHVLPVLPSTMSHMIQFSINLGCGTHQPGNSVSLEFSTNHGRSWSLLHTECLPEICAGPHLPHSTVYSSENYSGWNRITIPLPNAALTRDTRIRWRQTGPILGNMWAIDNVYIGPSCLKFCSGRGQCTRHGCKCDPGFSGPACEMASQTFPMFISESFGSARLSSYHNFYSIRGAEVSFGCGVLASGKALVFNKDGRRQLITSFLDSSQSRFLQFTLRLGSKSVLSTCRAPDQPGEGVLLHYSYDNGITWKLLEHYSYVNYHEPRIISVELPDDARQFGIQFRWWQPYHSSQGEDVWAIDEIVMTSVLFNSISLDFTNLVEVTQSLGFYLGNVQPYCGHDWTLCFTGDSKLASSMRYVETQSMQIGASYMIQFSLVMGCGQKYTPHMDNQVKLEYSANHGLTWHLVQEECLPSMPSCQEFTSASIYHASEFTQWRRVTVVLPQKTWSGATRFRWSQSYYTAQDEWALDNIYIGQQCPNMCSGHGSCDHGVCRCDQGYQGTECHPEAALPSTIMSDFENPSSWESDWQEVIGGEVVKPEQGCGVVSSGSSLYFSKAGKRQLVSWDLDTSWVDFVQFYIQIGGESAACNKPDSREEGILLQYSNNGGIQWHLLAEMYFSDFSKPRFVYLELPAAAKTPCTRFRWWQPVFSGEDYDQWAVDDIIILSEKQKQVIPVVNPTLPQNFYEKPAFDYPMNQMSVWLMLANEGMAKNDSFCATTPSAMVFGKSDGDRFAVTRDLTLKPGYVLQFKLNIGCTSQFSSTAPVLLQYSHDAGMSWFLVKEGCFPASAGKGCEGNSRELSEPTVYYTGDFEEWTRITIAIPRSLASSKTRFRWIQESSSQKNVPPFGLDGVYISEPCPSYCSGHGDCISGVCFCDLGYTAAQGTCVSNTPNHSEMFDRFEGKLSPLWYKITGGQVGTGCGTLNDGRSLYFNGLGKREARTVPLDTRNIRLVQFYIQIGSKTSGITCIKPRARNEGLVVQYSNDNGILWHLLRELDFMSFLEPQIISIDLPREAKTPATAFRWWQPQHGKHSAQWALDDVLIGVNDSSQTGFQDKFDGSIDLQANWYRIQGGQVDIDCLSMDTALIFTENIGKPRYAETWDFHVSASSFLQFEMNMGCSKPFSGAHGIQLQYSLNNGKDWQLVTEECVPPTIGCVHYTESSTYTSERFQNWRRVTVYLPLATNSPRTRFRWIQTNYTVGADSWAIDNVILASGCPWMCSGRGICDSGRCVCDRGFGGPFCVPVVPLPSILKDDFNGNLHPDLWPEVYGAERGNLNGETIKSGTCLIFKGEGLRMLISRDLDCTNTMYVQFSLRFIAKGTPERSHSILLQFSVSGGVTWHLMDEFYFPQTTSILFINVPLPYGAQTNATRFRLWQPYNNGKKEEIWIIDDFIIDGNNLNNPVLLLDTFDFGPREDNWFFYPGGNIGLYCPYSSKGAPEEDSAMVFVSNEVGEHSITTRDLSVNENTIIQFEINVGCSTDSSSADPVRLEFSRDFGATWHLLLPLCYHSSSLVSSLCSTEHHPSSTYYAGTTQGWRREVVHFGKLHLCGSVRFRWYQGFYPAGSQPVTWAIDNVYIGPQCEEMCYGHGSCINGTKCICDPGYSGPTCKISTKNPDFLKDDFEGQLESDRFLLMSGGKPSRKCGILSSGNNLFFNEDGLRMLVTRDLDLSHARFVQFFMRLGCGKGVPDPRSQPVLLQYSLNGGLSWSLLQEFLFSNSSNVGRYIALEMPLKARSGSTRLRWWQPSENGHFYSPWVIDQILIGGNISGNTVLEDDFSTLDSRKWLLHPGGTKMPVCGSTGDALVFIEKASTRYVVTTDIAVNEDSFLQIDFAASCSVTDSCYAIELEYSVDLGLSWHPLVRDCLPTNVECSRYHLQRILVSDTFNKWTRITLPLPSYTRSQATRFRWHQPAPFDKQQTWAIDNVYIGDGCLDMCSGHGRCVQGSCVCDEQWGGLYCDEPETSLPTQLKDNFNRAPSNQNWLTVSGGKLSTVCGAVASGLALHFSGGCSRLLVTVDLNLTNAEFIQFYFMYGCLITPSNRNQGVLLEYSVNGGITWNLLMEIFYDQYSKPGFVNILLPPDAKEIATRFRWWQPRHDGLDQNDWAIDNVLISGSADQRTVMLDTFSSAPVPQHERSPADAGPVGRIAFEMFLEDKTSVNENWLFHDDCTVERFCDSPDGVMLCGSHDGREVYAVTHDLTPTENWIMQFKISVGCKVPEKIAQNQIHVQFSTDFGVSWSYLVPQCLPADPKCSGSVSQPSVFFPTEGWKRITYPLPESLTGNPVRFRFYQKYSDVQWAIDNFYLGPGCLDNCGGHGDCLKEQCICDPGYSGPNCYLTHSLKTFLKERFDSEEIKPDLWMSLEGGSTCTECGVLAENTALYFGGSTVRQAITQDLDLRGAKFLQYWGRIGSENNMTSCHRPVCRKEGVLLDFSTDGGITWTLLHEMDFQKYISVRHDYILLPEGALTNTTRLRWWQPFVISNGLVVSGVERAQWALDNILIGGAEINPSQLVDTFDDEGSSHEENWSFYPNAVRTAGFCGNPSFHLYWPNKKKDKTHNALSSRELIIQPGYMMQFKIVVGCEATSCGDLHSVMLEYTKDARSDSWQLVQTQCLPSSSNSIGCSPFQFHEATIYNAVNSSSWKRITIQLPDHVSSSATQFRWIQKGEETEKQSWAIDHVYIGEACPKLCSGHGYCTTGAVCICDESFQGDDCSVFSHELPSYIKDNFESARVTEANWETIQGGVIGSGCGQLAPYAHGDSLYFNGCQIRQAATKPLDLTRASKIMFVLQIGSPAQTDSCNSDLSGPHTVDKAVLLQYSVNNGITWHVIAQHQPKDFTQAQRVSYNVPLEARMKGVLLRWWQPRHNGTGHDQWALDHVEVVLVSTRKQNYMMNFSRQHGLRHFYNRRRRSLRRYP
UniProt Q5FW60: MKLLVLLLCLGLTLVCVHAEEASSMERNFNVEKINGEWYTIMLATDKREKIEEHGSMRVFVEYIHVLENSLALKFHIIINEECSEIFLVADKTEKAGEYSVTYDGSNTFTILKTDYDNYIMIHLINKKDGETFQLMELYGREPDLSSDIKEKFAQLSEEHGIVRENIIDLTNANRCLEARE
UniProt Q60989, whole entry: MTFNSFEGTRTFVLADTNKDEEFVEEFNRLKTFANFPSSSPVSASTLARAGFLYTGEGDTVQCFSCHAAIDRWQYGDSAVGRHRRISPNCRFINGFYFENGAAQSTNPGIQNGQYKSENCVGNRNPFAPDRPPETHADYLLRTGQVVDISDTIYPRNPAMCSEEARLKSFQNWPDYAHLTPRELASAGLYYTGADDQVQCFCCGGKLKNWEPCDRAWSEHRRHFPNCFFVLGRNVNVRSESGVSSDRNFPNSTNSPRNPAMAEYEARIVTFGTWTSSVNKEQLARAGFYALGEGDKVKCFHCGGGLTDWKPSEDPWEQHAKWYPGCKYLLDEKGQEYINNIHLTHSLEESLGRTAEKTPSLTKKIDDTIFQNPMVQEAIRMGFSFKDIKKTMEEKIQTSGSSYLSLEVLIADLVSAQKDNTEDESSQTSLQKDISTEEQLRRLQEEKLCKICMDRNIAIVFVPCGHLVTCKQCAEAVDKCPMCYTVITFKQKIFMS
UniProt Q5EBH1: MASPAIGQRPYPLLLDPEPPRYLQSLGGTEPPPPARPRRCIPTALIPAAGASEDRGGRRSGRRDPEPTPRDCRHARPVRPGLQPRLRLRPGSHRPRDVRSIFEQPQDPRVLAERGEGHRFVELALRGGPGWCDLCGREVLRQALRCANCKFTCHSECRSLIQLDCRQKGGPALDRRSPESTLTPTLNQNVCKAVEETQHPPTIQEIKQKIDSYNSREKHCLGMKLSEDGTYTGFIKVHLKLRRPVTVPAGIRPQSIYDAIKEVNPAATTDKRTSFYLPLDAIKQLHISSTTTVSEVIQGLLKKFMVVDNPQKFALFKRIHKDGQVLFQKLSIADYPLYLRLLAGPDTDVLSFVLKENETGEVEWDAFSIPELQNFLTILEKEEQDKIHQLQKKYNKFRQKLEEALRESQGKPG
UniProt Q5F293: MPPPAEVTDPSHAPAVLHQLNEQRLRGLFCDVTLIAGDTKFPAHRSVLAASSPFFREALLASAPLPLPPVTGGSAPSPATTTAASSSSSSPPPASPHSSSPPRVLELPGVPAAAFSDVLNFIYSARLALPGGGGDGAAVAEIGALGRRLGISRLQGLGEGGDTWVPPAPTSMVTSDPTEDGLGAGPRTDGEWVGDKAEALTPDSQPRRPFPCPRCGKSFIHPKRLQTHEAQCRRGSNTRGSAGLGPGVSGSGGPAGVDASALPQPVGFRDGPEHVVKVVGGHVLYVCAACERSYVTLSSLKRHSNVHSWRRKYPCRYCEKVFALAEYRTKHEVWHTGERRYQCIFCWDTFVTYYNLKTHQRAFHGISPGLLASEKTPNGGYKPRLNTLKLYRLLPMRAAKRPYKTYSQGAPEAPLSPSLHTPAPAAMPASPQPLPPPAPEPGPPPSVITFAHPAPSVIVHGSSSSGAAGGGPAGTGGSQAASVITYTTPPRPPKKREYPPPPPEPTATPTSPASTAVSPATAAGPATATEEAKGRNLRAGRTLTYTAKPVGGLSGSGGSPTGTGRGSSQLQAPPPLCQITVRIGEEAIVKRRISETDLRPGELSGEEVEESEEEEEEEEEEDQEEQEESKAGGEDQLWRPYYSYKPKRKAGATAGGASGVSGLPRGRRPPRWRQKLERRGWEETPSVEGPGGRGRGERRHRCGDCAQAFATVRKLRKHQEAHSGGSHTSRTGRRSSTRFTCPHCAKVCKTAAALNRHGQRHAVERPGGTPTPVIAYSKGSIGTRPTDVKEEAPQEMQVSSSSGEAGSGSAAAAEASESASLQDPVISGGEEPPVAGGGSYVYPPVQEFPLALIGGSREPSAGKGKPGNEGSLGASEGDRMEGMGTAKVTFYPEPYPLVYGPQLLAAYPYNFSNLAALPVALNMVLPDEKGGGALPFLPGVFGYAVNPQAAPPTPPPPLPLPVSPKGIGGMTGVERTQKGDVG
UniProt Q60698: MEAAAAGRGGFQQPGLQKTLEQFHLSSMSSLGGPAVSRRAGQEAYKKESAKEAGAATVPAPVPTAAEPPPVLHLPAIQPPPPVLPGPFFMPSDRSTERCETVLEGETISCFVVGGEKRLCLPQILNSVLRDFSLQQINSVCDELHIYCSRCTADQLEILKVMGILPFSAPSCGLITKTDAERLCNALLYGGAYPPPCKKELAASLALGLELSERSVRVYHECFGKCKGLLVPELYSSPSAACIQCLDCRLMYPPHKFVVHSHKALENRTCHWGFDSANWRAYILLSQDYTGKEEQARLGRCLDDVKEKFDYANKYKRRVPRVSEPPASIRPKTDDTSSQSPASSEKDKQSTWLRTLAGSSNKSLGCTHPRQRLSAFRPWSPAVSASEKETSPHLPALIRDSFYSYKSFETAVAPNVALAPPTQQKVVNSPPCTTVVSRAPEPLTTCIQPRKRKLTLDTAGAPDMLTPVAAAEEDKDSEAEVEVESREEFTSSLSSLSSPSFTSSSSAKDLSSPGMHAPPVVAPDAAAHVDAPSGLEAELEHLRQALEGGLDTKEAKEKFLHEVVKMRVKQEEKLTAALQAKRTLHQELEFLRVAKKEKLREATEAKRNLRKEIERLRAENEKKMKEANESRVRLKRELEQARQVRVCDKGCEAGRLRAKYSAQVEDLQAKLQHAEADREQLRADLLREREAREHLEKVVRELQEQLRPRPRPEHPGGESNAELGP

Compound: CN[C@@H]1C[C@H]2O[C@@](C)([C@@H]1OC)n1c3ccccc3c3c4c(c5c6ccccc6n2c5c31)C(=O)NC4 [staurosporine]
Experiment: log2 fold change of tryptic peptide abundance, ligand vs vehicle (limited proteolysis) (log2 ratio); higher = more trypsin-susceptible (destabilized)
Details: ligand concentration: 20 uM; sample: mouse liver crude lysate; replicate design: treated separately

Row | Target | log2 fold change
1 | UniProt Q5SUF2 (peptide sequence: ESDTKNEVNGTSEDIK, peptide start residue: 409) | 0.442
2 | UniProt Q60931 (peptide sequence: LTLDTIFVPNTGKK, peptide start residue: 97) | -0.838
3 | UniProt Q5ND28 (peptide sequence: SAIPKPLR, peptide start residue: 727) | 0.434
4 | UniProt Q5SVQ0 (peptide sequence: SQQQPTPVTPK, peptide start residue: 82) | -0.0923
5 | UniProt Q5QR91 (peptide sequence: RVTVHLVYSER, peptide start residue: 79) | 0.184
6 | UniProt Q5XFZ0 (peptide sequence: ALLSQSASDKNPK, peptide start residue: 195) | -0.181
7 | UniProt Q60841 (peptide sequence: TVMLDTFSSAPVPQHER, peptide start residue: 2669) | -0.216
8 | UniProt Q5FW60 (peptide sequence: INGEWYTIMLATDKR, peptide start residue: 34) | 0.043
9 | UniProt Q60989 (peptide sequence: DISTEEQLRR, peptide start residue: 433) | 0.412
10 | UniProt Q5EBH1 (peptide sequence: EVNPAATTDKR, peptide start residue: 262) | 0.386
11 | UniProt Q5U5M8 (peptide sequence: GDLCALAER, peptide start residue: 158) | -0.346
12 | UniProt Q5NCC3 (peptide sequence: LEEQAAQLSR, peptide start residue: 353) | 0.224
13 | UniProt Q61233 (peptide sequence: ITNFSTDIK, peptide start residue: 286) | -0.826
14 | UniProt Q5SSH8 (peptide sequence: GMEANEQEQR, peptide start residue: 158) | -0.267
15 | UniProt Q60996 (peptide sequence: LFMEMNQK, peptide start residue: 396) | 0.353
16 | UniProt Q5SXA9 (peptide sequence: GQSCKEPPEVQSFR, peptide start residue: 1070) | -0.314
17 | UniProt Q60980 (peptide sequence: IEPGIEPQR, peptide start residue: 198) | -0.107
18 | UniProt Q60I26 (peptide sequence: IQHLGAEIHLIR, peptide start residue: 895) | 0.25
19 | UniProt Q61169 (peptide sequence: DGTGHYLCNACGLYSK, peptide start residue: 398) | -0.479
20 | UniProt Q5F293 (peptide sequence: RHSNVHSWRR, peptide start residue: 302) | -0.36
21 | UniProt Q5SUE8 (peptide sequence: EAAALGDIR, peptide start residue: 16) | 0.141
22 | UniProt Q5MJS3 (peptide sequence: HNAEIAAFHLDR, peptide start residue: 260) | 0.223
23 | UniProt Q60698 (peptide sequence: TCHWGFDSANWR, peptide start residue: 269) | -0.175

Taken from above:
For log2 fold change, UniProt Q5SUE8 (peptide sequence: EAAALGDIR, peptide start residue: 16) is listed with 0.141
For log2 fold change, UniProt Q5ND28 (peptide sequence: SAIPKPLR, peptide start residue: 727) is listed with 0.434
